Source: the supplement of paper PMC12067093, “Discovery and optimisation of a covalent ligand for TRIM25 and its application to targeted protein ubiquitination” (Chemical Science, 2025)
This is one part of the list.

The chains behind the UniProt entries cited, without tags or fusion partners. Where a name states a change or a piece, a line headed by the entry shows the natural chain unless it says otherwise.
UniProt P50990: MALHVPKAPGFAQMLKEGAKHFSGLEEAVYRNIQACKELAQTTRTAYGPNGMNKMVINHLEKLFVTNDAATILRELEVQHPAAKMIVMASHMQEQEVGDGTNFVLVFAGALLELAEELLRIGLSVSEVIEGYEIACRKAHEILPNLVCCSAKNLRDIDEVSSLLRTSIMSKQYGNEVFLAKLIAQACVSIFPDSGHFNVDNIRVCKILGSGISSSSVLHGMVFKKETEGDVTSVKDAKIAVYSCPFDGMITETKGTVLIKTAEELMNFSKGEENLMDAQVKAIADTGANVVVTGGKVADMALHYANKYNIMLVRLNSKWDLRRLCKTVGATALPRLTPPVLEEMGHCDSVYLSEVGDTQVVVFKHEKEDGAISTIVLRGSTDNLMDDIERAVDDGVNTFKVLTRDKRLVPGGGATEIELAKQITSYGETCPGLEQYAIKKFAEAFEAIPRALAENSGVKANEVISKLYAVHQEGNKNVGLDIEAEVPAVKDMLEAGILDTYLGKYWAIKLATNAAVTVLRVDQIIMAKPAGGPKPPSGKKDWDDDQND
UniProt P50991: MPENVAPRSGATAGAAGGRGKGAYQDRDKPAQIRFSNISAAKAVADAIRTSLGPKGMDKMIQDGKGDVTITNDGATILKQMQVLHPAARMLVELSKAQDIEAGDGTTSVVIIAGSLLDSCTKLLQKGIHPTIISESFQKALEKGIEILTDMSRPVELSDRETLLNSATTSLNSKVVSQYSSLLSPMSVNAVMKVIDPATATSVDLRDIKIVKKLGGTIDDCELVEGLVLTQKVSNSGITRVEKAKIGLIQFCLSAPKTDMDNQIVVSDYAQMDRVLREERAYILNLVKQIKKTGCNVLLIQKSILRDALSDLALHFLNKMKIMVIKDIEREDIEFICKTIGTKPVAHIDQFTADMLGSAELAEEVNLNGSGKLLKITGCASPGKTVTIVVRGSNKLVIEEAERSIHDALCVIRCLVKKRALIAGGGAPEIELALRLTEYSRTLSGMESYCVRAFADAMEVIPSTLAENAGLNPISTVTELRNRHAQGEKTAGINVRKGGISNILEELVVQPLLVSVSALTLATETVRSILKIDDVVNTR
UniProt Q99832: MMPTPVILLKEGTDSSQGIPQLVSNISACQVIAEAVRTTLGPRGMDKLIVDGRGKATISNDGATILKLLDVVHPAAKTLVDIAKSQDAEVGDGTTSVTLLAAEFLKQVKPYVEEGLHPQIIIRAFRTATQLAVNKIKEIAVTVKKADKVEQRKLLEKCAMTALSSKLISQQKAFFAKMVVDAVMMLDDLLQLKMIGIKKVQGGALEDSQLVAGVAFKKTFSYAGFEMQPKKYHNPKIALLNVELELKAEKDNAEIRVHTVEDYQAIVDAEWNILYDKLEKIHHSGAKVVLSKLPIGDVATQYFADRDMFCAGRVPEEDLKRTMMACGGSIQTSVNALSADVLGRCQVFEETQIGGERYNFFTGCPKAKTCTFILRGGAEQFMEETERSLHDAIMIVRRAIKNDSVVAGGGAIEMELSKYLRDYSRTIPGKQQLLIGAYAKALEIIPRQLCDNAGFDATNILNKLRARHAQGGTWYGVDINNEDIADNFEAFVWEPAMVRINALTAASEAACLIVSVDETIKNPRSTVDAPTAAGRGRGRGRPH
UniProt Q7Z7K6: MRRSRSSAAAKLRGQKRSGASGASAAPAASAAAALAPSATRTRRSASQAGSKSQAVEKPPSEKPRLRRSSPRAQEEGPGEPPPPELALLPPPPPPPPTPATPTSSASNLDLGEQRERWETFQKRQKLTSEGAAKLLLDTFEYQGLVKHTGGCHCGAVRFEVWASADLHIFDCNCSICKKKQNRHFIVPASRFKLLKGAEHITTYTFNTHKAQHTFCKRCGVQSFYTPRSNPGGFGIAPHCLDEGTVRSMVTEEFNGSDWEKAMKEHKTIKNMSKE
UniProt Q9NPY3: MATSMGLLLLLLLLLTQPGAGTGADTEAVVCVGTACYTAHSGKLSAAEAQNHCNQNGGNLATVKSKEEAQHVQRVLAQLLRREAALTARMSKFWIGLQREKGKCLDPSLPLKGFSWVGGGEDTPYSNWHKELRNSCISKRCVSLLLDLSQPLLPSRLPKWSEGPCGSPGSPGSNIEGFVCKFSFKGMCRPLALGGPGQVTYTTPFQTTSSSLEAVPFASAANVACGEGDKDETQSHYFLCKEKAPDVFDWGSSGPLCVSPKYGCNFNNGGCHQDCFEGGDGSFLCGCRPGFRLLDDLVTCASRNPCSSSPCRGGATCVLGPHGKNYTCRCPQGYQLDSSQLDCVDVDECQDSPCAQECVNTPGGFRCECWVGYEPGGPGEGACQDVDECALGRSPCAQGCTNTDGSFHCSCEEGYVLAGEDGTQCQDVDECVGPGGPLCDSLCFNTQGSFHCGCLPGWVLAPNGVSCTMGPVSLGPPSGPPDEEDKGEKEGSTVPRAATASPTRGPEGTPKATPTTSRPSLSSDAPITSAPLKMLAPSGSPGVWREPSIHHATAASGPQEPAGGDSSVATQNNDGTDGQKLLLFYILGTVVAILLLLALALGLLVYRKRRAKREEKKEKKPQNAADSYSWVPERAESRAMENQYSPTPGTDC
UniProt P49454: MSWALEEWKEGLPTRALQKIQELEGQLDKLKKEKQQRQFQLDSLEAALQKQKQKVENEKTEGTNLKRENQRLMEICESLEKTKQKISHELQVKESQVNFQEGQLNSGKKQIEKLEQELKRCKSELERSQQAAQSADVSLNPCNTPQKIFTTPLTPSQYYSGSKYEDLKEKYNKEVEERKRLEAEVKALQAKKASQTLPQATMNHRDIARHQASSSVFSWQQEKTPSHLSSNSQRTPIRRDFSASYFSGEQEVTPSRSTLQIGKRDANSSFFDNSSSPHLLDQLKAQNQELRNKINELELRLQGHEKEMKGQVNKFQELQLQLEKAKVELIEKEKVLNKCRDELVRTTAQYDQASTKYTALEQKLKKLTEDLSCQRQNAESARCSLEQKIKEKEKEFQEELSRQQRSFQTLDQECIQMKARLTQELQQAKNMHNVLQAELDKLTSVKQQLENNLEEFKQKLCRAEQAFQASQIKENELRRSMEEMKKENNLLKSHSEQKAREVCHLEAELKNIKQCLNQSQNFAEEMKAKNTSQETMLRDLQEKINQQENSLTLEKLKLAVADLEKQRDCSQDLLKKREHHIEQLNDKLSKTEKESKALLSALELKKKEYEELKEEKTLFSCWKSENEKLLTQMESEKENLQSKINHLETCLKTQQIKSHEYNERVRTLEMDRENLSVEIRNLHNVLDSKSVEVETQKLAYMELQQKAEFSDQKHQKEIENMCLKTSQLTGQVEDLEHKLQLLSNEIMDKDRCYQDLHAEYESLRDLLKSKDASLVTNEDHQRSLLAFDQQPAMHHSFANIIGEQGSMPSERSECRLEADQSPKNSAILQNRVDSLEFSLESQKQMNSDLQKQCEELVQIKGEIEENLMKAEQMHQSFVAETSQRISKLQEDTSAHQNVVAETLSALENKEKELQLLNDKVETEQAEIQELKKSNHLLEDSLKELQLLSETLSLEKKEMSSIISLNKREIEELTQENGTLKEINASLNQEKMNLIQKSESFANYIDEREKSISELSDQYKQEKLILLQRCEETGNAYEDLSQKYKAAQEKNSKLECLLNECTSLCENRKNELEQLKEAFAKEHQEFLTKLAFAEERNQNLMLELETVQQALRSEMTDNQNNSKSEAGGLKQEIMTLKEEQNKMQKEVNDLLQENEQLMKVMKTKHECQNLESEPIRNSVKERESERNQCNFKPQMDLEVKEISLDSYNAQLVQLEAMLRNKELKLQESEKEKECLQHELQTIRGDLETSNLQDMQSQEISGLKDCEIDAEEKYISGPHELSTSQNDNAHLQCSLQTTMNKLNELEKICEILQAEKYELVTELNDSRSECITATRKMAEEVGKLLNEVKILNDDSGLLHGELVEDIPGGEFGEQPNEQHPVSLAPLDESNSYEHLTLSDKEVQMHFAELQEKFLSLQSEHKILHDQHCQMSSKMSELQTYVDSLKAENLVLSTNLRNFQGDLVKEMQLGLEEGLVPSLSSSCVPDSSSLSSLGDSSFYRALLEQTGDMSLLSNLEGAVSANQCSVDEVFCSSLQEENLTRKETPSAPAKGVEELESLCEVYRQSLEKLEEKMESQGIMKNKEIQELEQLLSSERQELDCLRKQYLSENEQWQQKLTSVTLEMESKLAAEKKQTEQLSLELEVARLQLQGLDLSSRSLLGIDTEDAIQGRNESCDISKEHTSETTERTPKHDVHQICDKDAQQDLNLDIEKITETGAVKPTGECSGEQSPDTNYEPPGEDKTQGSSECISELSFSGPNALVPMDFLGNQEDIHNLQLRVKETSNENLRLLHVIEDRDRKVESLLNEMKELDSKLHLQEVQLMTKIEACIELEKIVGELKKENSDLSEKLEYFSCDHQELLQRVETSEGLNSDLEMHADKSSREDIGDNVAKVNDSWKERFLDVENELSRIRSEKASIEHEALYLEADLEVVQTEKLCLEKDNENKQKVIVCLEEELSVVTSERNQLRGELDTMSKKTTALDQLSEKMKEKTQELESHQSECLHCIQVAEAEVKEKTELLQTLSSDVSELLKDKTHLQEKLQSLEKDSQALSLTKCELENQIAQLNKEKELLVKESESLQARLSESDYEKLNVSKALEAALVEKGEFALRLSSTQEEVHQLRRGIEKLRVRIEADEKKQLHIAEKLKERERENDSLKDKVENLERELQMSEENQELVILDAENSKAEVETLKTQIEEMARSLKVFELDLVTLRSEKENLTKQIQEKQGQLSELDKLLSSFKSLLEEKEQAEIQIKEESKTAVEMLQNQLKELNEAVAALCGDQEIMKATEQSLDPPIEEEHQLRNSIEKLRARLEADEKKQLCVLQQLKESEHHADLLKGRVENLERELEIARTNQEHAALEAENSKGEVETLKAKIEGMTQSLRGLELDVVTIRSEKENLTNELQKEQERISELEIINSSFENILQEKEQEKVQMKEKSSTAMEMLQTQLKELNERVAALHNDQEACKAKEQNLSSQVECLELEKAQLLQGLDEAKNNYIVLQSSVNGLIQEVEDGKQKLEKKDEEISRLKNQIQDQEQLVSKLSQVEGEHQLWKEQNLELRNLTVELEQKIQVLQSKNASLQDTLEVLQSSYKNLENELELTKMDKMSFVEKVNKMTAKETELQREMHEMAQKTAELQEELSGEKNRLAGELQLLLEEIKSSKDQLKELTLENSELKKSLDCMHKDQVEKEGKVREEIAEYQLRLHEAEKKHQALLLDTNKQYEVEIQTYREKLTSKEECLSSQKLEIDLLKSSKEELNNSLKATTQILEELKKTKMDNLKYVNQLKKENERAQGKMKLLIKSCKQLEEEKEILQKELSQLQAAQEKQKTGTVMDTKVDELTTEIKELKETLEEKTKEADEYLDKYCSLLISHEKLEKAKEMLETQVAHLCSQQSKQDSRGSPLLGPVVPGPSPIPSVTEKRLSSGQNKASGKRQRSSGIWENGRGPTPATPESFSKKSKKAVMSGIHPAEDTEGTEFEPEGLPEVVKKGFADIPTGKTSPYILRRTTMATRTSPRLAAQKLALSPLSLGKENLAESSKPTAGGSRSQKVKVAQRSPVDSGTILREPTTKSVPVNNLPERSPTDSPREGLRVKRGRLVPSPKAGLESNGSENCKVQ
UniProt Q92879: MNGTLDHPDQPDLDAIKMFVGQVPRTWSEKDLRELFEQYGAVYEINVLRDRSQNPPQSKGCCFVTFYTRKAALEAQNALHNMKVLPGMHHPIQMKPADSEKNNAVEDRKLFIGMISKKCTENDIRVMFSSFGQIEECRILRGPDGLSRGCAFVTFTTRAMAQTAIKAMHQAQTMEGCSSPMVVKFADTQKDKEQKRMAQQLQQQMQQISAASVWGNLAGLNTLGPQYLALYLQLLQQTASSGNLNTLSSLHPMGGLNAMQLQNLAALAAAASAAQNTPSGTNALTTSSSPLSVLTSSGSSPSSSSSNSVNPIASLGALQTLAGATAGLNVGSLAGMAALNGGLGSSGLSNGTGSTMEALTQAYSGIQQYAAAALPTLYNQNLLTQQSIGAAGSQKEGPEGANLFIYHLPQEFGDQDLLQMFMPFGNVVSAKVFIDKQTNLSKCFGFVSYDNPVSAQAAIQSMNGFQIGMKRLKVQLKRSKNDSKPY
UniProt P34810: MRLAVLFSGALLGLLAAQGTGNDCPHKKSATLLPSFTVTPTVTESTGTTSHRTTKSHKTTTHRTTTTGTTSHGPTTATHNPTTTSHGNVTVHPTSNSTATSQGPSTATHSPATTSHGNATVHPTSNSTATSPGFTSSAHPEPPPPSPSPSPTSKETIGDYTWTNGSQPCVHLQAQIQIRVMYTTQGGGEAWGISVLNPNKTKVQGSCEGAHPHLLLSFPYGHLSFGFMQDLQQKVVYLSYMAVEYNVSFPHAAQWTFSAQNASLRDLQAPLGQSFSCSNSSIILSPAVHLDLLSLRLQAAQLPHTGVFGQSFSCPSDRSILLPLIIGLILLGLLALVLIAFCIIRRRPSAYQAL

Compound: CC1Cc2ccccc2N1C(=O)C1CCCN(C1)C(=O)CCl (mixture of isomers) [TRIM25 ligand 11 (diastereomer mixture)]
Assay: probe-labelled cysteine peptide fold change vs DMSO (competition) (log2 fold change); higher = less target engagement (more negative = stronger competition)
Details: THP-1, incubation time: 4 h
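Note: competitive chemoproteomic profiling in live THP-1 cells with an iodoacetamide desthiobiotin (IA-DTB) probe, comparing probe-labelled peptide intensities in compound-treated cells against DMSO-treated controls.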

Target	probe-labelled cysteine peptide fold change (10 µM)	probe-labelled cysteine peptide fold change (50 µM)
CDC16_Q13042_194_LCNEEQELLR (UniProt Q13042)	0.144	-0.0536
CDC37_Q16543_336_CIDSGLWVPNSK (UniProt Q16543)	0.000899	-0.0455
CCT8_P50990_136_IGLSVSEVIEGYEIACRK (UniProt P50990)	0.129	0.122
CD63_P08962_177_NRVPDSCCINVTVGCGINFNEK (UniProt P08962)	0.13	-0.00794
CD70_P32970_151_LSFHQGCTIASQR (UniProt P32970)	0.0737	-0.00783
CCT8_P50990_148+149_KAHEILPNLVCCSAK (UniProt P50990)	-0.187	-0.0657
CD276_Q5ZPR3_383_DLRPGDTVTITCSSYR (UniProt Q5ZPR3)	0.0574	0.215
CDC23_Q9UJX2_500_YIQDIYSCGEIVEHLEESTAFR (UniProt Q9UJX2)	0.00317	-0.14
CDC27_P30260_115+126_SHDDIVTEFGDSACFTLSLLGHVYCK (UniProt P30260)	0.166	0.036
CCT4_P50991_221_LGGTIDDCELVEGLVLTQK (UniProt P50991)	0.0423	-0.0108
CD40_P25942_186_TDVVCGPQDR (UniProt P25942)	0.143	0.244
CD38_P28907_119_LGTQTVPCNK (UniProt P28907)	-0.012	0.0468
CDK12_Q9NYV4_1039_MAPPDLPHWQDCHELWSK (UniProt Q9NYV4)	-0.00591	-0.241
CEP192_Q8TEP8_272_QANENGSLNCK (UniProt Q8TEP8)	-0.0492	-0.283
CDC25C_P30307_42_DTSFTVCPDVPR (UniProt P30307)	0.047	-0.293
CDC27_P30260_673_ALDINPQSSVLLCHIGVVQHALKK (UniProt P30260)	-0.0964	-0.0276
CDK5_Q00535_83_LTLVFEFCDQDLK (UniProt Q00535)	0.0724	-0.0385
CDC20_Q12834_313_VAEHHVATLSGHSQEVCGLR (UniProt Q12834)	0.16	-0.0494
CDC37L1_Q7L3B6_190_FLSDHPYLVCEETAK (UniProt Q7L3B6)	0.0895	0.0315

Target	probe-labelled cysteine peptide fold change (10 µM)	probe-labelled cysteine peptide fold change (50 µM)
CCT7_Q99832_310_LPIGDVATQYFADRDMFCAGRVPEEDLKR (UniProt Q99832)	-0.506	-0.303
CCT4_P50991_295_TGCNVLLIQK (UniProt P50991)	0.0565	0.255
CD2BP2_O95400_234_GLGCQTLGPHNPTPPPSLDMFAEELAEEELETPTPTQR (UniProt O95400)	0.287	-0.217
CDC27_P30260_673_ALDINPQSSVLLCHIGVVQHALK (UniProt P30260)	0.078	0.134
CCT7_Q99832_364_YNFFTGCPK (UniProt Q99832)	-0.0181	-0.0808
CDCA2_Q69YH5_979_SFCISTLANTK (UniProt Q69YH5)	-0.193	-0.305
CENPV_Q7Z7K6_152+154_HTGGCHCGAVR (UniProt Q7Z7K6)	0.131	0.212
CDT1_Q9H211_163_ASAQDAGESCTPEAEGRPEEPCGEK (UniProt Q9H211)	-0.19	-0.248
CD93_Q9NPY3_53_LSAAEAQNHCNQNGGNLATVK (UniProt Q9NPY3)	-0.148	-0.128
CENPF_P49454_1188_NQCNFKPQMDLEVK (UniProt P49454)	-0.136	-0.225
CENPC_Q03188_612_CSLSEPLESDEADLAK (UniProt Q03188)	-0.00438	-0.19
CEP76_Q8TAP6_156_SKPVPCACEPDFHDGFLLEVHR (UniProt Q8TAP6)	0.0132	0.0437
CELF1_Q92879_119_CTENDIR (UniProt Q92879)	0.0713	0.0983
CD68_P34810_314_LQAAQLPHTGVFGQSFSCPSDR (UniProt P34810)	-0.078	-0.0764
CEP97_Q8IW35_34_LGPNLPCEADIHTLILDK (UniProt Q8IW35)	0.0724	0.148
CDCA7L_Q96GN5_383_GQFCGPCLR (UniProt Q96GN5)	0.0119	-0.036
CEP76_Q8TAP6_414_GVPHAWVMTCGTDGAITFWESLTGHR (UniProt Q8TAP6)	0.105	-0.123
CDC40_O60508_378_KVPYCVK (UniProt O60508)	-0.493	-0.314
CCT4_P50991_337_DIEREDIEFICK (UniProt P50991)	-0.0115	0.163

Some of the entries so far, with bars between the fields.
Target | probe-labelled cysteine peptide fold change (10 µM) | probe-labelled cysteine peptide fold change (50 µM)
CDT1_Q9H211_163_ASAQDAGESCTPEAEGRPEEPCGEK (UniProt Q9H211) | -0.19 | -0.248
CD93_Q9NPY3_53_LSAAEAQNHCNQNGGNLATVK (UniProt Q9NPY3) | -0.148 | -0.128
CENPF_P49454_1188_NQCNFKPQMDLEVK (UniProt P49454) | -0.136 | -0.225
CENPC_Q03188_612_CSLSEPLESDEADLAK (UniProt Q03188) | -0.00438 | -0.19
CEP76_Q8TAP6_156_SKPVPCACEPDFHDGFLLEVHR (UniProt Q8TAP6) | 0.0132 | 0.0437
CELF1_Q92879_119_CTENDIR (UniProt Q92879) | 0.0713 | 0.0983
CD68_P34810_314_LQAAQLPHTGVFGQSFSCPSDR (UniProt P34810) | -0.078 | -0.0764
CEP97_Q8IW35_34_LGPNLPCEADIHTLILDK (UniProt Q8IW35) | 0.0724 | 0.148
